Measured values from paper PMC5605198, “MELK is not necessary for the proliferation of basal-like breast cancer cells” (eLife, 2017).

Tests used:
141 kinases = assay: ICKP panel radiometric kinase profiling (summary); type: biochemical; conditions: 1 μM
[1] = tested on: kinases (KINOMEscan panel); assay: KINOMEscan kinase panel profiling, S(35) score; type: binding

Row | Compound | % of the kinases inhibited over 90% (141 kinases) [%] | S(35) score ([1]; 1 μM, 456 kinases) | S(35) score ([1]; 10 μM, 353 kinases)
1 | CN(C)C[C@H]1CC[C@H](N2C(=O)NCc3cnc4ccc(-c5cc(Cl)c(O)c(Cl)c5)cc4c32)CC1 [HTH-01-091, 9-(3,5-dichloro-4-hydroxyphenyl)-1-(trans-4-((dimethylamino)methyl)cyclohexyl)-3,4-dihydropyrimido[5,4 c]quinolin-2(1H)-one] | 4 | 0.16 | –
2 | O=c1ccc2cnc3ccc(-c4ccc(O)cc4)cc3c2n1-c1ccc(N2CCNCC2)c(C(F)(F)F)c1 [JW-7-25-1] | – | – | 0.54
3 | CC(=O)c1cnc2ccc(-c3cc(Cl)c(O)c(Cl)c3)nc2c1N[C@H]1CC[C@H](CN(C)C)CC1 [OTSSP167] | 67 | – | –
